Some entries repeat one wording, which the source may state once for all of them.
Tested on: MCF-7, NHDF and P14 cells
Assay: Fluorescence and confocal microscopy: uptake and sub-cellular localization
Assay type: cell-based, human
Conditions: co-staining with MitoTracker, ER-Tracker, Hochest 33342
Description: The timescale of trafficking of these compounds and their sub-cellular localization have been subsequently examined in MCF-7, NHDF and P14 cells using fluorescence microscopy. The cells are mounting on 0.1 mm thick glass cover slips by withdrawal of the respectively growth medium.
The incubation times to test the ability compounds to penetrate into cells varied from 5 min to 48 h, and concentrations onto the cells were 10 nM and 100 µM by dissolving in appropriate medium. […] By analyzing each image recorded, all the compounds in all cells rapidly crossed the cell membrane (5 min) and induced a slight stain in the first minutes of incubation, depending on the type of cells. However, for incubation times longer than 30 min, it seems that this difference in the stained disappeared, thus appearing that the compounds were localized into an organelle of the cytoplasm.
Besides, the subcellular localization of the compounds has been confirmed by co-staining with MitoTracker™ (25 nM, 45 min of incubation) and ER-Tracker™ (100 nM, 30 min of incubation) probes in MCF-7, NHDF and P14 cells, with compound concentrations of 10 nM and 100 nM and for incubation times of 1 h.
After growth in the glass bottom culture dishes coated with collagen (1×10^4 cells/dish), the cells were incubated in the dark at 37°C with 10 nM of all the compounds and analyzed from 5 min to 48 h.
Prior to visualization, the excess probe was washed off by rinsing in PBS four times. After mounting these samples, the compounds were localized using a Zeiss AX10 microscope and the Axio Vision Real 4.6 software.
In the co-localization experiment, cells were incubated in the dark at 37°C with 100 nM of all the compounds for 1 h. […] Prior to visualization, excess probe was washed off by rinsing in PBS four times.
An appropriate emission band was selected for the two fluorescent channels. A 63× ApoChromat,1.4-NA objective (Carl Zeiss) was used to ensure high-resolution images. DIC images were collected simultaneously with transmitted light by excitation at 633 nm. Sequential rather than simultaneous acquisition was used to avoid bleed-through between the two fluorescent channels. Images were processed with LSM Image Browser (Zeiss), ImageJ and Adobe Photoshop.

SMILES	sub-cellular localization
CN1CCCNCc2cccc(n2)CNCCCN(C)CCCNCc2cccc(n2)CNCCC1 [Me2[28]py2N6]	localize in mitochondria and ER
c1cc2ccc3ccc4nc3c2nc1CNCCCCCCNC4 [[16]phenN2]	localize in mitochondria and ER
c1cc2ccc3ccc4nc3c2nc1CNCCNCCNCc1ccc2ccc3ccc(nc3c2n1)CNCCNCCNC4 [[30]phen2N6]	localize in mitochondria and ER
c1cc2ccc3ccc4nc3c2nc1CN1CCCCCCN(C4)Cc2ccc3ccc4ccc(nc4c3n2)CN2CCCCCCN(Cc3ccc4ccc5ccc(nc5c4n3)C2)Cc2ccc3ccc4ccc(nc4c3n2)C1 [cryptphen]	localize in mitochondria and ER
